Experimental data from patent publication US20240190923A1.
No constants are given. Whether binding was seen depends on the method and setting. In cells and extracts the contact can be indirect. Binding can be weak; no strength is given.

Columns and labels:
[1] = biological target: atx_mad-3b (Crotalus atrox); test: whole C. atrox venom on FETUA-3 affinity column, gel-excised upper band of eluate, LC-MS/MS; protein identification probability 98%
[2] = biological target: atx_mpf-1a (Crotalus atrox); test: as above
[3] = biological target: atx_mdc-3a (Crotalus atrox); test: as above
[4] = biological target: atx_mdc-6e (Crotalus atrox); test: whole C. atrox venom on FETUA-3 affinity column, total eluate, LC-MS/MS; protein identification probability 99.90%
[5] = biological target: atx_mad-5a (Crotalus atrox); test: whole C. atrox venom on FETUA-3 affinity column, gel-excised upper band of eluate, LC-MS/MS; protein identification probability 99%
[6] = biological target: atx_mdc-3a (Crotalus atrox); test: whole C. atrox venom on FETUA-3 affinity column, total eluate, LC-MS/MS; protein identification probability 99.20%
[7] = biological target: atx_mad-1b (Crotalus atrox); test: whole C. atrox venom on FETUA-3 affinity column, total eluate, LC-MS/MS; protein identification probability 97.90%
[8] = biological target: atx_mdc-8b (Crotalus atrox); test: whole C. atrox venom on FETUA-3 affinity column, total eluate, LC-MS/MS; protein identification probability 100.00%
[9] = biological target: atx_mad-3b (Crotalus atrox); test: as above
[10] = biological target: atx_mad-4a (Crotalus atrox); test: as above
[11] = biological target: atx_mdc-6b (Crotalus atrox); test: as above
[12] = biological target: atx_mdc-6c (Crotalus atrox); test: as above
[13] = biological target: atx_mad-5a (Crotalus atrox); test: as above
[14] = biological target: atx_mad-4b (Crotalus atrox); test: as above
MPO-1 (Crotalus atrox) [15] = test: as above
[16] = biological target: atx_mdc-8c (Crotalus atrox); test: as above
[17] = biological target: atx_mdc-5a (Crotalus atrox); test: as above
[18] = biological target: atx_mad-3a (Crotalus atrox); test: as above
[19] = biological target: atx_mdc-7 (Crotalus atrox); test: as above
[20] = biological target: atx_mdc-5b (Crotalus atrox); test: as above
[21] = biological target: atx_mpf-1a (Crotalus atrox); test: as above
[22] = biological target: atx_mdc-6d (Crotalus atrox); test: as above
[23] = biological target: atx_mad-3b (Crotalus atrox); test: whole C. atrox venom on FETUA-3 affinity column, gel-excised lower band of eluate, LC-MS/MS; protein identification probability 100.00%
[24] = biological target: atx_mad-5a (Crotalus atrox); test: as above
MPO-1 (Crotalus atrox) [25] = test: as above
[26] = biological target: atx_mad-3a (Crotalus atrox); test: as above
MPO-1 (Crotalus atrox) [27] = test: whole C. atrox venom on FETUA-3 affinity column, gel-excised upper band of eluate, LC-MS/MS; protein identification probability 100%
[28] = biological target: atx_mdc-8c (Crotalus atrox); test: as above
[29] = biological target: atx_mdc-5a (Crotalus atrox); test: as above
[30] = biological target: atx_mdc-7 (Crotalus atrox); test: as above
[31] = biological target: atx_mdc-5b (Crotalus atrox); test: as above
[32] = biological target: atx_mdc-6d (Crotalus atrox); test: as above

Measured: binding

B1: C. atrox FETUA-3 with Habu residues 317-322 (protein)
chain: FQLAGNMDCNTKGTKDWADIGVRYINEHKLHGYKQALNIIKIFRLLPSDGRSVIFHFKLNLLETECHVLDPTPLENCTVRQQNNHAVEMDCNVRIIHDIATFEDEVFVKCNSTPDSVENVRRNCPKCPILLPPNDPHVIDSVEYVLNKHNEKLSGHIYEVLEISRGQHKYEPEAFYVEFAIVEVNCTAEEAHDDHHDCHPNTDGENHIGFCRATVFRSHASLEKPKEEMFESDCVILHVKKGHAYSHLIEHHVGKYNTSPGRNSTDECVVQCPVAFVNKEVPKDISDHDTPPVEGCPGKVHHFKL
modifications: covalently coupled to NHS-Trap HP agarose in the affinity experiment
binds: all assays above
